In the supplement of paper PMC5949888:
Most values lie at the floor of the assay. Slopes are relative: functional sequences can read slightly below zero.

The substances below were run on Saccharomyces cerevisiae PS128 hsf1 delta, HSF1(1-493) fusion (assay: growth estimate (transactivation domain function in HSF1 fusion, heat-shock survival) (a.u. (slope of normalised read count over time)); higher = stronger growth at 37°C, i.e. more transactivation activity). Settings: library: random library.
Substance NSGKTMQVCFYDCL has a growth estimate of under -0.25.
NSGLAKQCFGAVCRGVGFKF gave a growth estimate of under -0.25.
With NSH the growth estimate was under -0.25.
NSICNGHKNGKGAYLAFKLL gave a growth estimate of under -0.25.
Work on NSIYYVALCQ yielded a growth estimate of under -0.25.
NSKGQSQACRFCGAHNTT gave a growth estimate of -0.243.
With NSLTVVFEPVGVGRTIANQG the growth estimate was under -0.25.
Work on NSQSCEAHGS yielded a growth estimate of under -0.25.
NSRKLCRTCLATPSTSAPCC showed a growth estimate of under -0.25.
With NSRMRSMVRDNGTAGFTCWC the growth estimate was under -0.25.
NSRPDVRSGRAPVTK was tested, and the growth estimate was under -0.25.
NSRPSLVWA gave a growth estimate of under -0.25.
Work on NSSDRKL yielded a growth estimate of under -0.25.
With NSSPLVGGHMLPLTNSKPIM the growth estimate was under -0.25.
In the case of NSSRRLDRQKDSSFAAQDRG, the growth estimate is reported as under -0.25.
Work on NSTSRDFGCTAGLDGMFHES yielded a growth estimate of under -0.25.
For NSVK, the growth estimate was under -0.25.
NSVKV was tested, and the growth estimate was under -0.25.
Work on NSWLSPPFASCIKTGNLLEI yielded a growth estimate of under -0.25.
Substance NSWWAL has a growth estimate of under -0.25.
In the case of NSYVKVARLMCKYGDASGTQ, the growth estimate is reported as under -0.25.
In the case of NSYVNGGLYVPVGN, the growth estimate is reported as under -0.25.
NTAADANTDTSVRCVADQGC showed a growth estimate of under -0.25.
For NTDIRSINYRTWLVIRCAMW, the growth estimate was under -0.25.
Work on NTEFSAS yielded a growth estimate of under -0.25.
With NTEFTHQQSKVPNISAVRGS the growth estimate was under -0.25.
NTESPQGRASLARAESWQFN gave a growth estimate of under -0.25.
NTF was tested, and the growth estimate was under -0.25.
NTFYQIPLRSVARANVRAPG gave a growth estimate of under -0.25.
For NTGNFRLLRSSATLPSSSSS, the growth estimate was under -0.25.
For NTILQAAYAQQAHSRCGLLL, the growth estimate was under -0.25.
Substance NTLCRSSHDSGCYS has a growth estimate of under -0.25.
For NTPQ, the growth estimate was under -0.25.
Substance NTPSYSDGYCNRSLSRKRNP has a growth estimate of under -0.25.
NTQIVNDEVGLVWAVGLFVG showed a growth estimate of under -0.25.
With NTRRPRLTYWHLGYDAQ the growth estimate was under -0.25.
NTSRALTYRSSPN was tested, and the growth estimate was under -0.25.
In the case of NVFASWQLDMLPARSDLYGA, the growth estimate is reported as under -0.25.
NVFCF gave a growth estimate of under -0.25.
With NVGLYVK the growth estimate was under -0.25.
NVIVILRNEYDNCLR showed a growth estimate of under -0.25.
NVLCTVRCRV gave a growth estimate of under -0.25.
In the case of NVLEMAFYNSPT, the growth estimate is reported as under -0.25.
Substance NVLFLEPRLGILEGGRYD has a growth estimate of under -0.25.
NVLR was tested, and the growth estimate was under -0.25.
NVLRAAG showed a growth estimate of under -0.25.
NVLRWL showed a growth estimate of under -0.25.
NVNGPKSTKIESGTTQTHKA was tested, and the growth estimate was under -0.25.
NVPSLGEN showed a growth estimate of under -0.25.
NVPSRAADNYRTEGNIPSTL showed a growth estimate of under -0.25.
Work on NVRSKVRTSPRPY yielded a growth estimate of under -0.25.
For NVTGEIRPDLGERSLTRGAK, the growth estimate was under -0.25.
NVTTQNLKTPTLSFLEREEL gave a growth estimate of under -0.25.
In the case of NVVEFSVYGYSTSFMSSRGY, the growth estimate is reported as under -0.25.
NVVGVAIGASLSGRRASPVV showed a growth estimate of under -0.25.
NVWGLGFDWLEVILTLQYRD was tested, and the growth estimate was under -0.25.
With NWLC the growth estimate was under -0.25.
In the case of NWNKGPYLHVM, the growth estimate is reported as -0.243.
NYARLFFLKYARWNRNSPLW was tested, and the growth estimate was under -0.25.
In the case of NYISRSPSSYLDALQRSSGE, the growth estimate is reported as under -0.25.
In the case of NYLNMSLR, the growth estimate is reported as under -0.25.
In the case of PAAYRD, the growth estimate is reported as under -0.25.
PACCLPLFDRYNSI was tested, and the growth estimate was -0.158.
Work on PADGEISATQRLEMLETYTG yielded a growth estimate of under -0.25.
With PADYRAPMLASQSNELLLDG the growth estimate was under -0.25.
Work on PAEQSFLGILWGHYLPLARI yielded a growth estimate of under -0.25.
Work on PAEVTWRLSSVLTFCGVGGD yielded a growth estimate of under -0.25.
PAG was tested, and the growth estimate was under -0.25.
Substance PAGASVSRSRSGDSA has a growth estimate of under -0.25.
Substance PAGR has a growth estimate of under -0.25.
With PAH the growth estimate was under -0.25.
Substance PAIAKMGSLPTASRDLPLRP has a growth estimate of under -0.25.
Work on PAKG yielded a growth estimate of under -0.25.
In the case of PAKIAER, the growth estimate is reported as under -0.25.
Work on PAKTLRITCTAVHNQG yielded a growth estimate of under -0.25.
With PAL the growth estimate was under -0.25.
With PALGEPKSSRGCECFHCPLD the growth estimate was under -0.25.
PALQGVNR was tested, and the growth estimate was under -0.25.
PAMQD gave a growth estimate of -0.246.
Work on PAMS yielded a growth estimate of under -0.25.
PAN showed a growth estimate of under -0.25.
PANRQRSCRCGSRPSLLGAG showed a growth estimate of under -0.25.
